Measurements reported in article PMC9873573, “Cryo-EM structure of the respiratory I + III2 supercomplex from Arabidopsis thaliana at 2 Å resolution” (Nature Plants, 2022).
These are yes or no findings as the source states them, for the method shown. Some results given as binding are weak or reduced against the parent protein; the word gives no strength.

T1: γ-type carbonic anhydrase subunit γCA2 of complex I (Arabidopsis thaliana (endogenous in cell suspension culture)) (UniProt Q9C6B3)
T1 sequence: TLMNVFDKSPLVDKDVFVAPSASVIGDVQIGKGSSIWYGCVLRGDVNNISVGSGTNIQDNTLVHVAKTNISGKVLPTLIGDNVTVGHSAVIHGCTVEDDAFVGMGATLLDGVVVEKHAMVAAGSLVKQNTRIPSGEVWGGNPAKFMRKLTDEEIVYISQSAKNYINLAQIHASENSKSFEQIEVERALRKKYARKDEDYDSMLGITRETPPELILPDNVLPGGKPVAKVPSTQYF

T2: γ-type carbonic anhydrase-like subunit γCAL2 of complex I (Arabidopsis thaliana (endogenous in cell suspension culture)) (UniProt Q9SMN1)
T2 sequence: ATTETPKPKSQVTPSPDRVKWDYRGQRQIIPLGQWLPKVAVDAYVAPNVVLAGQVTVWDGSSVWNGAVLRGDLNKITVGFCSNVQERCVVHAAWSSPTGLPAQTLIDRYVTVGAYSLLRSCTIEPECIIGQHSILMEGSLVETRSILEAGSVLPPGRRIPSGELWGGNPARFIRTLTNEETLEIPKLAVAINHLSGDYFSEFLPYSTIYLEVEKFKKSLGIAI

B1: γ-type carbonic anhydrase subunit γCA1 of complex I (protein, UniProt Q9FWR5 44-275)
chain: TLMNVFDKAPIVDKEAFVAPSASVIGDVHIGRGSSIWYGCVLRGDVNTVSVGSGTNIQDNSLVHVAKSNLSGKVHPTIIGDNVTIGHSAVLHGCTVEDETFIGMGATLLDGVVVEKHGMVAAGALVRQNTRIPSGEVWGGNPARFLRKLTDEEIAFISQSATNYSNLAQAHAAENAKPLNVIEFEKVLRKKHALKDEEYDSMLGIVRETPPELNLPNNILPDKETKRPSNVN
B2: γ-type carbonic anhydrase subunit γCA2 of complex I (protein, UniProt Q9C6B3 44-278)
chain: TLMNVFDKSPLVDKDVFVAPSASVIGDVQIGKGSSIWYGCVLRGDVNNISVGSGTNIQDNTLVHVAKTNISGKVLPTLIGDNVTVGHSAVIHGCTVEDDAFVGMGATLLDGVVVEKHAMVAAGSLVKQNTRIPSGEVWGGNPAKFMRKLTDEEIVYISQSAKNYINLAQIHASENSKSFEQIEVERALRKKYARKDEDYDSMLGITRETPPELILPDNVLPGGKPVAKVPSTQYF

Assays:
[1] = target: T1, γ-type carbonic anhydrase subunit γCA2 of complex I (Arabidopsis thaliana (endogenous in cell suspension culture)); experiment: cryo-EM structure; native I + III2 supercomplex isolated from digitonin-solubilised Arabidopsis mitochondria (sucrose gradient, Superose 6 in GDN); 30 mM Tris-HCl pH 7.4, 60 mM NaCl, 0.02% GDN; 2.36 Å for the whole supercomplex, 2.03 Å after multibody refinement, 1.9 Å after density modification; both purified
[2] = target: T2, γ-type carbonic anhydrase-like subunit γCAL2 of complex I (Arabidopsis thaliana (endogenous in cell suspension culture)); experiment: as above

Binder | binding [1] | binding [2]
B1 | binds | binds
B2 |  | binds
